Results published in PMC6351030.
These are yes or no findings as the source states them, for the method shown. In cells and extracts the contact can be indirect. Some binding calls cover weakened binding; strength is not graded here. For part of these data: Sequences can lack the tags named with a protein.

By UniProt entry, the sequences of proteins in these tests, tags left out.
UniProt O76216: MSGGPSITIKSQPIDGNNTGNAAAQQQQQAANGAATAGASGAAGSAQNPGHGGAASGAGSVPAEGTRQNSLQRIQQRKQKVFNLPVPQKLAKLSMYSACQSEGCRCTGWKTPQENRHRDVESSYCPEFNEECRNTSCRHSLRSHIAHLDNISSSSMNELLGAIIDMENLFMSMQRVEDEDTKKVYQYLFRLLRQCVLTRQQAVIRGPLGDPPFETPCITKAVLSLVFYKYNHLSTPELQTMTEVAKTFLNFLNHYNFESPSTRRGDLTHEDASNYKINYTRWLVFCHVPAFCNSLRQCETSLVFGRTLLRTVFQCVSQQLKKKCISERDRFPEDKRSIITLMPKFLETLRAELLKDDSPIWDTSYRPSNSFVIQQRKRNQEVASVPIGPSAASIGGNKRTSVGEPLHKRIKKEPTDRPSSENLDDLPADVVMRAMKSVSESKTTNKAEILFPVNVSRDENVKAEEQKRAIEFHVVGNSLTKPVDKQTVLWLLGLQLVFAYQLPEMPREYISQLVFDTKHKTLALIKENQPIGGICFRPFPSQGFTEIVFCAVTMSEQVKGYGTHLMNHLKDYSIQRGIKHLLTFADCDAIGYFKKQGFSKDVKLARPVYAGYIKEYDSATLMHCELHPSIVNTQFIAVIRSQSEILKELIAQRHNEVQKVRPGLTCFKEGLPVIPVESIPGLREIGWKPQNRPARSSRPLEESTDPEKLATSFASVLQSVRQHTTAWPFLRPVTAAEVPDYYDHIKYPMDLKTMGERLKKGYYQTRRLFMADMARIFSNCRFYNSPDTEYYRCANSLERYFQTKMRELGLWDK

T1: ENY2 protein (enhancer of yellow 2) (D. melanogaster (endogenous in S2)) (UniProt Q9VYX1)
T1 sequence: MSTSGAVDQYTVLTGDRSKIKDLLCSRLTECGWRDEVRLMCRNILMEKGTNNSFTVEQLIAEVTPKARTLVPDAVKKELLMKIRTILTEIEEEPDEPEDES

T2: CG9890 protein (D. melanogaster (endogenous in S2)) (UniProt Q9W1V7)
T2 sequence: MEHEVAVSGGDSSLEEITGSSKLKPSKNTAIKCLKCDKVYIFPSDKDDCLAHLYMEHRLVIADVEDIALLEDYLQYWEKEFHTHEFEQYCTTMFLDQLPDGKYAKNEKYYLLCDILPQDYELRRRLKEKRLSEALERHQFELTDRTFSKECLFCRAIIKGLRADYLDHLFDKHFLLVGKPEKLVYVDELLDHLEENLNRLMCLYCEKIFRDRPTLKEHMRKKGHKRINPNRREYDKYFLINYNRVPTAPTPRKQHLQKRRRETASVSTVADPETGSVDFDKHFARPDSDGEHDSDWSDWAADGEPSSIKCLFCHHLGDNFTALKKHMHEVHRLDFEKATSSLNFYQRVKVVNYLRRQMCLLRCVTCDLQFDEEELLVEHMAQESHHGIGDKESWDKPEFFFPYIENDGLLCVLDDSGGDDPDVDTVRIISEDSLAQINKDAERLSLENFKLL

B1: CG9890 protein labeled with a 3xFLAG epitope (protein, UniProt Q9W1V7 1-452)
chain: T2 sequence
B2: ORC2 subunit of the ORC complex (protein, UniProt Q24168 1-618)
chain: MSASNKGGYKTPRKENLMSIENLTNSEEESEDLNTAMVGNAVESQPKVTSRRSTRRPSPTKKYQAYQKESNGKGQEERIVVNYVEMSDERSSDAEDQEEEESIEESENAARPAAKDLHLIQSEYNVAGTSMFGFNTPKKRDAMALAALNATPCTPKTPKTPRLGVKTPDTKRKKSMDQPKTPAHVRTRVKKQIAKIVADSDEDFSGDESDFRPSDEESSSSSSSSDAGNSSDNDAADDEPKTPSRARRAIVVPVLPKTPSAARLRQSARAKKSNEFVPESDGYFHSHASSKILTSDHTLDRLKNPRLAADRVFSLLSEIKTSAEHEGSINAIMEEYRSYFPKWMCILNEGFNILLYGLGSKHQLLQSFHREVLHKQTVLVVNGFFPSLTIKDMLDSITSDILDAGISPANPHEAVDMIEEEFALIPETHLFLIVHNLDGAMLRNVKAQAILSRLARIPNIHLLASIDHINTPLLWDQGKLCSFNFSWWDCTTMLPYTNETAFENSLLVQNSGELALSSMRSVFSSLTTNSRGIYMLIVKYQLKNKGNATYQGMPFRDLYSSCREAFLVSSDLALRAQLTEFLDHKLVKSKRSVDGSEQLTIPIDGALLQQFLEEQEKK
B3: ORC3 subunit of the ORC complex (protein, UniProt Q7K2L1 1-721)
chain: MDPTISVSKGCFVYKNGATRAGKKAASKRKRPAAESSSLLGKEVVQQPFYEEYRKAWNQINDHIADLQHRSYARTLEQLVDFVVGQAERDTPDEVLPTAALLTGINQPDHLSQFTALTQRLHAQRAAMVCVLQSRDCATLKAAVETLVFGLVEDNAEVEQMEDEDEDEDGAERDRKRLRRSQCTMKQLKSWYTNNFDSEQKRRQLVVILPDFECFNASVLQDLILILSAHCGSLPFVLVLGVATAMTAVHGTLPYHVSSKIRLRVFQTQAAPTGLNEVLDKVLLSPKYAFHLSGKTFKFLTHIFLYYDFSIHGFIQGFKYCLMEHFFGGNAFALCTDYSKALGRIKQLTHEDMETIRRLPSFRPYVEQINDCKRIIAVLTDDDYLKKKLPQLLRDCLLHFLLFRCSLEFLTELVGDLPRCPLGKLRRELYVNCLNRAIISTPEYKECLQMLSFLSKDEFVAKVNRALERTEQFLVEEIAPLELGEACTAVLRPKLEAIRLAVDEVVKATMATITTTSPNETRQATDHLTPVASRQELKDQLLQRSKEDKMRHQLNTPTTQFGRALQKTLQLIETQIVQDHLRALQDAPPIHELFVFSDIATVRRNIIGAPRAALHTALNNPHFYMQCKCCELQDQSLLVGTLPDLSVVYKLHLECGRMINLFDWLQAFRSVVSDSDHEEVAQEQIDPQIQARFTRAVAELQFLGYIKMSKRKTDHATRLTW
B4: TBP (subunit of the TFIID complex) (protein, UniProt P20227 1-353)
chain: MDQMLSPNFSIPSIGTPLHQMEADQQIVANPVYHPPAVSQPDSLMPAPGSSSVQHQQQQQQSDASGGSGLFGHEPSLPLAHKQMQSYQPSASYQQQQQQQQLQSQAPGGGGSTPQSMMQPQTPQSMMAHMMPMSERSVGGSGAGGGGDALSNIHQTMGPSTPMTPATPGSADPGIVPQLQNIVSTVNLCCKLDLKKIALHARNAEYNPKRFAAVIMRIREPRTTALIFSSGKMVCTGAKSEDDSRLAARKYARIIQKLGFPAKFLDFKIQNMVGSCDVKFPIRLEGLVLTHCNFSSYEPELFPGLIYRMVRPRIVLLIFVSGKVVLTGAKVRQEIYDAFDKIFPILKKFKKQS
B5: Thoc5 (subunit of the THO complex) (protein, UniProt Q9W1F4 1-616)
chain: METILNTQFDQLQKAIEGIKEAKSKGQSTDEARIATTLMFVALKHANREVKHKIKAGRDKLHLEKCKVDLSRLQLQNLLYEVSHLKKEIVRCQKFKSRDTSLELLSEAEYSSELPDMPNDAEELSSHKQHLHRLDCELRLRKALDKQYSALLSSKQELLQDNLSHAQRYVSFAPALRTLQSATKPLHDALQLSLDVEWKLSAVVKYLPKPLYVLFIVLQSLQRVSEEQSFTAEVVGYESEAQMQELLKEKKCSTLNYRQTKKESGDREKIADKNNLDDSLAPHPLHICLTIGAAGSNQLVLQIRYFDFIKCATVWGQLNCSRNANGQGDTNFVHHLLRHLYPNDLGNELPIPGIQYELRSSDLTAEECVRYLKAKDYGKPFCWLQSMCSIATVNSSMLYKHELNLNKNNKEIIDRIARRLNSWQRLSQQIRGLTFKDIDLYSLQENIYPAGLSCSLVQWTAITHEELHSQISDALNSSSADKGITYNSYRAVIVRGSAKMECFIRIPSNYPLEMPLWILNVHWNGCLTAQNNSAIKMMEFWTNSLQPKHLEPNDCILYAQLFRTIYSFDIFLETEGSMQNTIEYNKEKPYISAFAKRSRSRPYKYIKKGSVYAFKQ

target: T1, ENY2 protein (enhancer of yellow 2) (D. melanogaster (endogenous in S2)); test: co-IP; immunoprecipitation with affinity-purified rabbit anti-ENY2 antibodies from lysate of S2 cells expressing 3xFLAG-CG9890; Western blot with anti-3xFLAG antibodies; pre-immune IgG as negative control

binding, binds:
B1

target: T2, CG9890 protein (D. melanogaster (endogenous in S2)); test: co-IP; immunoprecipitation with polyclonal anti-CG9890 antibodies immobilised on Mab-sepharose from S2 nuclear lysate (MN III buffer: 20 mM HEPES KOH, 3 mM MgCl2, 0.1% NP40, 0.1 M KCl, pH 8.0; sonicated, DNase I treated), 3 h at +4 °C; Western blot; IgG of an unimmunized rabbit as negative control

binding, binds:
GCN5 (subunit of the histone acetyltransferase SAGA complex) (from UniProt O76216 1-813)
B2
B3
B4
B5
